Consider one molecule from article doi:10.1101/2020.10.05.326181.

Sequences of proteins named here, by UniProt entry; tags and fusion partners are left off. A change or cut given only in a name is not applied to a line headed by its entry.
UniProt Q92547: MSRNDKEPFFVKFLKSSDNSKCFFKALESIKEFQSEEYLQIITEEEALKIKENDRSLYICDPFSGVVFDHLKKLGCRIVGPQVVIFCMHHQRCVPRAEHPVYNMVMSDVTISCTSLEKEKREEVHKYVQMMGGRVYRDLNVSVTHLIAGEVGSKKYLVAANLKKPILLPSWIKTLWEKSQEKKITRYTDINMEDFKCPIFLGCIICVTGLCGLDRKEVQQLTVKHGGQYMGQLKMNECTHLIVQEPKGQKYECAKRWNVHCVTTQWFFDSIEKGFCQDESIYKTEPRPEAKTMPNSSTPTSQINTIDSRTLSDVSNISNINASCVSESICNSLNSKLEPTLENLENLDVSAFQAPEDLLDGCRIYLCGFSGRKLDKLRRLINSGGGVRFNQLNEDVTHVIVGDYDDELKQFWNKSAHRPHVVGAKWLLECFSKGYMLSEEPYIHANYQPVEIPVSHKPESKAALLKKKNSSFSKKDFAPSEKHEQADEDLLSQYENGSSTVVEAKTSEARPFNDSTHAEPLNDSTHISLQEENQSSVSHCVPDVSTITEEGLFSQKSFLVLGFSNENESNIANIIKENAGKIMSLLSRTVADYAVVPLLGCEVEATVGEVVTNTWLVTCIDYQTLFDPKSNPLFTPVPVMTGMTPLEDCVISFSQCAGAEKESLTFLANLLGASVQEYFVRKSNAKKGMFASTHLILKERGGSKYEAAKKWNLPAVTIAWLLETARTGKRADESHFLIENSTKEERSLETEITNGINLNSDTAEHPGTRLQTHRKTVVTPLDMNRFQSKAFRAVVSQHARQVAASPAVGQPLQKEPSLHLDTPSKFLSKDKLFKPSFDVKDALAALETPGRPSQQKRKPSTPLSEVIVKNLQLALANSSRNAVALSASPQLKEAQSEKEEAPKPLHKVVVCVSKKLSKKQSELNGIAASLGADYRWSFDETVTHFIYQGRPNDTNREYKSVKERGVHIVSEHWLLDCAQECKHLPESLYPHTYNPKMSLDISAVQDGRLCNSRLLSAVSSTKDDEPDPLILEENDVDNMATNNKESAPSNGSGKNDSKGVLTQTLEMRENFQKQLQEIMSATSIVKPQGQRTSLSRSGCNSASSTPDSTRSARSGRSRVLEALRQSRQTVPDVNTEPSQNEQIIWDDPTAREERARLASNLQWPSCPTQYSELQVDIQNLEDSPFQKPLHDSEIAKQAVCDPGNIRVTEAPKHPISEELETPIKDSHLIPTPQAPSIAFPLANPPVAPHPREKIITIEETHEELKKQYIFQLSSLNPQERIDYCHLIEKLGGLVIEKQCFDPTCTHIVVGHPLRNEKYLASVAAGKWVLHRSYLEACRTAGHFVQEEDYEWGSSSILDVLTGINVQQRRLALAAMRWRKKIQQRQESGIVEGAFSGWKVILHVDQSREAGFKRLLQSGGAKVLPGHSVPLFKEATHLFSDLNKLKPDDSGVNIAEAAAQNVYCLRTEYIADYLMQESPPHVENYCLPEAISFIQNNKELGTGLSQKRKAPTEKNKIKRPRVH

What all share (assay): proximity labelling
The target of assay [1] is Flag-BirA*-TopBP1 W1145R (human) (UniProt Q92547).
In assay [2] the target is Flag-BirA*-TopBP1 WT (human) (UniProt Q92547).
Assay [3] shares this target. The source holds these as a separate data set.

Like-named read-outs stand apart in the source and are kept apart here. These are yes or no findings as the source states them, for the method shown. In cells and extracts the contact can be indirect. These calls come from enrichment with a bait or labelling near it, and not all partners need be listed. For part of these data: A no says only that the protein was not detected with the bait.

B1: nucleolar protein NOL11 (protein, UniProt Q9H8H0 1-719)
chain: MAALEEEFTLSSVVLSAGPEGLLGVEQSDKTDQFLVTDSGRTVILYKVSDQKPLGSWSVKQGQIITCPAVCNFQTGEYVVVHDNKVLRIWNNEDVNLDKVFKATLSAEVYRILSVQGTEPLVLFKEGAVRGLEALLADPQQKIETVISDEEVIKWTKFFVVFRHPVLIFITEKHGNYFAYVQMFNSRILTKYTLLLGQDENSVIKSFTASVDRKFISLMSLSSDGCIYETLIPIRPADPEKNQSLVKSLLLKAVVSGNARNGVALTALDQDHVAVLGSPLAASKECLSVWNIKFQTLQTSKELPQGTSGQLWYYGEHLFMLHGKSLTVIPYKCEVSSLAGALGKLKHSQDPGTHVVSHFVNWETPQGCGLGFQNSEQSRRILRRRKIEVSLQPEVPPSKQLLSTIMKDSEKHIEVEVRKFLALKQTPDFHTVIGDTVTGLLERCKAEPSFYPRNCLMQLIQTHVLSYSLCPDLMEIALKKKDVQLLQLCLQQFPDIPESVTCACLKIFLSIGDDSLQETDVNMESVFDYSINSVHDEKMEEQTEILQNGFNPEEDKCNNCDQELNKKPQDETKESTSCPVVQKRAALLNAILHSAYSETFLLPHLKDIPAQHITLFLKYLYFLYLKCSENATMTLPGIHPPTLNQIMDWICLLLDANFTVVVMMPEAKRLLINLYKLVKSQISVYSELNKIEVSFRELQKLNQEKNNRGLYSIEVLELF
Turning to B1, the binding entry is recorded as “no binding” in assay [1], “binds” in assay [2] and “binds” in assay [3].
